Assay results from PMC10163288.
The list shows a part of the results.

B1: il2ra_site2_2erj_sap_34_mot_35d2dc24e2c4431f89e6f806b163ecf8_0001_af2_000000142_0001_35_50_H_._HHH_b1_08674_af2_0001_0000200006_0000001_0_0001 (protein)
chain: DVEELLEEAAELLKKGDPRALHVLFEALRAAAEEGDPELLKEIEKVMELLHENEEQAVELLERLG
B2: il2ra_site1_2b5i_sap_12_mot_HHH_b2_06557_000000121_0001_42_56_H_._HHH_b2_06964_0001_0000100004_0000001_0_0001_af2pred_0001_af2pred (protein)
chain: SSSSSEASEEAFELFREANELARNGDPEEARKVLEEALELAERGNSPNLVKSIRIALEQLKSSSS
B3: il2ra_site2_3nfp_sap_23_mot_HHH_b1_06158_af2_000000274_0001_1_17_H_._297f351de040020aa651d6b40cb4c2be_0001_1_af2_0001_0000100001_0000001_0_0001 (protein)
chain: SSSSSLAEELVEAHLALLEEALRQGDEESARRAIEIAEAVIEQLDNEELQELLEELKELLSSSSS
B4: il2ra_site1_3nfp_normal_mot_HHH_b2_02066_af2_000000034_0001_1_16_H_._HHH_b2_02769_af2_0001_0000200020_0000001_0_af2pred_0001_af2pred_swapped (protein)
chain: SSSSDEYEELRELVRQIRELRRKGDPRAEELVEEALRLAEELGSRVAALLLRRLEEHIEHDSSSS
B5: il2ra_site2_2erj_sap_32_mot_HHH_b2_01204_af2_000000051_0001_19_34_H_._HHH_b2_05327_0001_0000100001_0000001_0_0001 (protein)
chain: SSSSSDALREAYELAVEVMRLLAEGDEEEAEELAEEVEKLLRELGSPEAAEMLRELLELQSSSSS
B6: il2ra_site1_3nfp_sap_13_mot_0eddeacbb14b769e73e254714f31e2f9_0001_af2_000000052_0001_37_51_H_._HHH_b2_04552_0001_0000400022_0000001_0_0001_af2pred_0001_af2pred_ … (protein)
chain: SSSSDEARIVIKLVEEIFEELGLSWRQLRLLTRIAAKLLNEGVSEEEIERILRELAEELLSSSSS
B7: il2ra_site1_3nfp_normal_mot_HHH_b1_07095_af2_000000161_0001_1_19_H_._HHH_b2_04861_0001_0000400022_0000001_0 (protein)
chain: SSSSSSSIEEFVRRAKELAEELGDPETAEELEELLREAEEKYDPELAEELIKLIAKLESSSSSSS
B8: il2ra_site1_2b5i_normal_mot_HHH_b1_06258_af2_000000112_0001_42_56_H_._HHH_b2_07344_af2_0001_0000100001_0000001_1_af2pred_0001_af2pred (protein)
chain: SSSSSSDEEADELWNEAARAYRKNPEEAKELLEQALEIAEEAGDEKAAKQIRHMLERLSSSSSSS
B9: il2ra_site2_2erj_sap_21_mot_HHH_b1_04496_000000138_0001_40_57_H_._HHH_b1_08401_0001_0000100001_0000001_0_0001 (protein)
chain: SSSTREAYELAAEASARLSRLARKGNEEEVERVSEEVIERLEEAGNPEAAKFIRKLTEALLSSSS
B10: il2ra_site2_3nfp_sap_18_mot_HHH_b1_05606_000000030_0001_23_39_H_._HHH_b1_04851_0001_0000700025_0000001_0_0001 (protein)
chain: SSSSNKEEYVRAALALLKLAAERKDDELFRRHFELIRLMIEDNNDEEAEELLEQLERLFNSSSSS
B11: il2ra_site2_2erj_sap_18_mot_678ce523d3521e26f84bf18760a59296_0001_000000113_0001_1_12_H_._HHH_b1_06677_0001_0000500024_0000001_0_0001 (protein)
chain: SSSSSHEEEVEELLRRAEKAYEEGDLHEVYRLLVEALAIASKNNDDELAQEVAEHLEKLGSSSSS
B12: il2ra_site2_2erj_sap_22_mot_HHH_b2_00907_000000126_0001_1_15_H_._HHH_b1_01434_af2_0001_0000500025_0000001_0_0001 (protein)
chain: SALEEAIEQAEKTNDPHLLVTIVRMAAWLAGDPELMKEAEELLERLKRGDPEAKEILEEIVEEIE
B13: il2ra_site1_3nfp_sap_17_mot_HHH_b1_07644_af2_000000110_0001_40_57_H_._HEEHE_2706_0001_0000400054_0000001_0_0001_af2pred_0001_af2pred (protein)
chain: SSSSTALETVEERAEKAFENNNKYQLEALYKLLREALERRGNPEAEEVLEKVEELLRELQSSSSS
B14: il2ra_site2_2erj_normal_mot_HHH_b1_05749_af2_000000010_0001_23_39_H_._HHH_b1_07967_0001_0001100051_0000001_1 (protein)
chain: SSSSDWLEELYRLAVELLRLSSRRDEEEFERVYREIERLVEEFNNESAREILEHIRRLFEGSSSS
B15: il2ra_site1_2b5i_sap_23_mot_80f7b4c21c45092860cd8bceb88a7fbb_0001_000000060_0001_1_12_H_._2104f07ea29b6e977b17d6fd601e7e07_0001_0001_0000200012_0000001_0_0001_a … (protein)
chain: SSSSNLLEEAFELMREANELARRGDDEEAKKVLEEAERLAREAGSRALLKSIESALEQLESSSSS
B16: il2ra_site2_2erj_normal_mot_90f6a21de4ed711cb697bb9f61d9c40c_0001_af2_000000135_0001_36_50_H_._HHH_b2_04009_0001_0000600038_0000001_0_af2pred_0001_1_af2pred_swa … (protein)
chain: SSSSDEEELEQLVERLAKELGASEEAKEEAEISAKTAKEAGASEEEIELFLRLLLKYLTHRSSSS
B17: il2ra_site2_2erj_normal_mot_HHH_b2_01204_af2_000000056_0001_19_34_H_._HHH_b2_03231_af2_0001_0000400032_0000001_1 (protein)
chain: SSSSSELEERVEELLEEARKAYEEGDLEEVYRLLVEALHLVSENNDDELQEEIAEFVEELSSSSS
B18: il2ra_site1_1z92_sap_16_mot_bc38a9f498cb1f18218c93d69bbf9b39_0001_af2_000000137_0001_15_32_H_._HHH_b2_03878_0001_0000300033_0000001_0_0001_af2pred_dldesign_0_af … (protein)
chain: SRVPLFLRAAAEIDPRVARNCRIIYETAKKLGAEDEEILRAIKKYVSRLDPALLERIEARVAELE
B19: il2ra_site1_3nfp_normal_mot_HHH_b2_07865_000000253_0001_20_36_H_._HEEHE_3312_0001_0000100025_0000001_0 (protein)
chain: DLQEDARHFSKMLARANNVDEVEVHQENGEITVTFSGNDERVERAAEAAEKLAKALGYPLEVETE
B20: il2ra_site2_2erj_sap_18_mot_HHH_b1_04373_af2_000000118_0001_18_33_H_._HHH_b1_00424_0001_0000600014_0000001_0_0001_af2pred_0001_1_af2pred_swapped (protein)
chain: TELYRILTEVAASIPDPKREEELFEELSRLLAEGNEKEAIELALEVAEELGNPELAELLRKLLEP
B21: il2ra_site1_3nfp_sap_14_mot_HHH_b2_06502_000000163_0001_42_55_H_._HHH_b2_00258_0001_0000200029_0000001_0_0001 (protein)
chain: SSSSDAAEWVEELAEKAFENNDERQLRILFRLLKRALEKIGDPKAREVLEEVEKLLRELQSSSSS
B22: il2ra_site2_3nfp_sap_18_mot_ems_p1-15H-GBL-16H-GBL-14H_0089_0001_0001_0001_af2_000000072_0001_19_33_H_._HHH_b1_08045_af2_0001_0000300008_0000001_0_0001_af2pred_ … (protein)
chain: SSSSDLEEEVRELLKEAQELLERGNPEEAEEVVRRAASIAAQAGDHELFMAASRLLEKIHRSSSS
B23: il2ra_site2_2erj_normal_mot_HHH_b1_00216_000000142_0001_43_57_H_._HHH_b1_07996_0001_0000300009_0000001_0_af2pred_0001_1_af2pred_swapped (protein)
chain: SSSSTREEKEALWALLRVRLAIEEGDPELARRSIELAEKRVEELGDEEVLEQLERLLRELSSSSS
B24: il2ra_site1_3nfp_sap_11_mot_16934e337390fad51c35c10e6cd388ee_0001_1_000000054_0001_52_65_H_._HHH_b1_03734_0001_0000100006_0000001_1_0001 (protein)
chain: DDARAVSKVVAEAAKQMGIPSVEVTVENGELEVTVEGNDEAAKAIKWAAENAAEWFRITVEVRHE

Biological target: il2ra, P01589
Assay: yeast display titration

Apparent Kd, inactive:
B1 no binding seen
B2 no binding seen
B3 no binding seen
B4 no binding seen
B5 no binding seen
B6 no binding seen
B7 no binding seen
B8 no binding seen
B9 no binding seen
B10 no binding seen
B11 no binding seen
B12 no binding seen
B13 no binding seen
B14 no binding seen
B15 no binding seen
B16 no binding seen
B17 no binding seen
B18 no binding seen
B19 no binding seen
B20 no binding seen
B21 > 826 nM
B22 no binding seen
B23 no binding seen
B24 no binding seen

Looked up one by one from the list above, 2 records:
Apparent Kd, inactive:
B3 no binding seen
B2 no binding seen
